46 sequences from the supplement of paper PMC10338343 can be followed below.

For assay [1], the system named is MILI (PIWIL2) piRISC loaded with L1MC piRNA (26 nt). Put plainly: pre-steady-state target cleavage rate (min^-1); higher = faster piRNA-guided slicing of the target. The conditions noted are these: guide: L1MC piRNA 5'p-UAACUAAAUACUAUGCAAGCUGUAGG;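 also: 1 nM active piRISC with 0.1 nM target library at 33 °C single turnover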
The procedure, abridged: (§1)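 For Cleave-'n-Seq, a transcribed, DNA-blocked target RNA library […] met 1 nM active affinity-purified piRISC with one synthetic guide at 33 °C for 0–8 or 0–960 min in HEPES–potassium acetate buffer, with or without 500 nM GTSF1 partner protein. Uncleaved targets were sequenced and normalised to depth and weakly complementary targets, with three trials pooled and k3 capped at 0.0001 min^-1. A burst-and-steady-state fit supplied the pre-steady-state cleavage rate.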

Assay [2] has as its system EfPiwi piRISC loaded with L1MC piRNA (26 nt). The assay is described as follows: pre-steady-state target cleavage rate (min^-1); guide: L1MC piRNA 5'p-UAACUAAAUACUAUGCAAGCUGUAGG; MIWI and MILI are mouse PIWI proteins and EfPiwi is from a freshwater sponge; tags in brackets are library labels; higher = faster piRNA-guided slicing of the target. Summed up:
as §1

The mark [3] stands for this setting: auxiliary factor: none (no GTSF1).
Setting [4] is: auxiliary factor: 500 nM Ephydatia muelleri Gtsf1.
Where [5] appears, read: auxiliary factor: 500 nM mouse GTSF1.
Where [6] appears, read: auxiliary factor: none (no Gtsf1).

± gives the standard deviation. The entries are a selection whose mix differs from that of the whole data set. The uncertainty is large for many entries. The list shows a part of the results.

Take UCCUGGAUGUCGAAGCAUAGUAUUUAGCUA: the entries for the “pre-steady-state target cleavage rate” value in assay [1] (setting [3]) and in assay [2] (setting [4]) were 0.000447 ± 0.012 and 0.000221 ± 0.019, respectively.
UCCUGGAAGAGCUUGCAUAGUAUUUAGAAA: the “pre-steady-state target cleavage rate” value in assay [1] (setting [3]) worked out at 0.00211 ± 0.0037; in assay [2] (setting [4]) it was 0.00533 ± 0.002.
Consider UCCUGGAUCAGCUCGCAUAGUAUUUAGUUA, for which the “pre-steady-state target cleavage rate” value in assay [1] (setting [5]) was determined as 0.284 ± 0.019; in assay [2] (setting [4]), 0.0549 ± 0.013.
Regarding UCCUGGUACAGCUUGCAUAGUAUUGAGUUA, the “pre-steady-state target cleavage rate” value in assay [1] (setting [3]) was found to be 0.00343 ± 0.0035; in assay [2] (setting [4]), 0.00418 ± 0.0024.
On to UCCUGGAUGUCGAUCCAAAGUAUUUAGUUA, for which the “pre-steady-state target cleavage rate” value in assay [1] (setting [3]) came to 0.000158 ± 0.017; in assay [2] (setting [4]) it was 0.000709 ± 0.0089.
UCCUGGAUGUCGAUGCAUAGUAAUUAGUAA: the figures for the “pre-steady-state target cleavage rate” value in assay [1] (setting [3]) and in assay [2] (setting [4]) were 0.000503 ± 0.015 and 0.000704 ± 0.0057, respectively.
Consider UCCUGGAUGUCCUUGCAUAGUAUUUAGAUUA, for which the “pre-steady-state target cleavage rate” value in assay [1] (setting [3]) was found to be 0.00242 ± 0.0032; in assay [2] (setting [4]) it was 0.00316 ± 0.003.
Regarding UCCUGGAUCAGCUUGGAUAGUAUUUUGUUA, the “pre-steady-state target cleavage rate” value is 0.00182 ± 0.0041 in assay [1] (setting [3]) and 0.00346 ± 0.0027 in assay [2] (setting [4]).
UCCUGGUACAGCUUGCUUAGUAUUUAGAUA: the “pre-steady-state target cleavage rate” value in assay [1] (setting [3]) is 0.00152 ± 0.0056; in assay [2] (setting [6]), 0.000634 ± 0.013.
For UCCUGCUUGUGCUUGCAUAGUAUUUAGUAA, the results for the “pre-steady-state target cleavage rate” value in assay [1] (setting [3]) and in assay [2] (setting [4]) were 0.00149 ± 0.0043 and 0.00475 ± 0.0026, respectively.
For the sequence UCCUGGAUGUCCUUGCAUAGUAUUUAGUGUA, the “pre-steady-state target cleavage rate” value in assay [1] (setting [3]) came to 0.00249 ± 0.0036; in assay [2] (setting [4]), 0.00123 ± 0.0036.
As for UCCUGGAUCAGCUUGCAUAGAAUAUAGUUA, the entries for the “pre-steady-state target cleavage rate” value in assay [1] (setting [3]) and in assay [2] (setting [4]) were 0.00211 ± 0.0035 and 0.0016 ± 0.0038, respectively.
UCCUGGAACAGCUUGCAUAGUAUUGAGUUA: the “pre-steady-state target cleavage rate” value in assay [1] (setting [3]) is 0.00235 ± 0.0026; in assay [2] (setting [4]), 0.00624 ± 0.0022.
Take UCCUGGUAGAGCUUGCAUAGUAUUUACUUA: the “pre-steady-state target cleavage rate” value was 0.00217 ± 0.004 in assay [1] (setting [3]) and 0.00156 ± 0.004 in assay [2] (setting [4]).
As for UCCUGCUACAGCUAGCAUAGUAAUUAGUUA, the “pre-steady-state target cleavage rate” value in assay [1] (setting [5]) came to 0.284 ± 0.026; in assay [2] (setting [4]), 0.00598 ± 0.0018.
On to UCCUGGAUGUCGAUGCAUACUAUUAAGUUA, for which the “pre-steady-state target cleavage rate” value in assay [1] (setting [3]) is 0.000121 ± 0.039; in assay [2] (setting [4]), less than 0.0001.
Consider UCCUGGUACAGCUUGCAUAGUAUGUAGUUA, for which the “pre-steady-state target cleavage rate” value was 0.0014 ± 0.0069 in assay [1] (setting [3]) and 0.00155 ± 0.0039 in assay [2] (setting [4]).
Turning to UCCUCCUACAGCUUGCAUAGUAUUUUGAAA, the “pre-steady-state target cleavage rate” value is 0.00213 ± 0.0037 in assay [1] (setting [3]) and 0.00602 ± 0.0032 in assay [2] (setting [4]).
Consider UCCUGCUACAGCUUGCAUAGUAAUUUGUUA, for which the entries for the “pre-steady-state target cleavage rate” value in assay [1] (setting [3]) and in assay [2] (setting [4]) were 0.00173 ± 0.0036 and 0.00579 ± 0.002, respectively.
For UCCUGGAUGUCGAAGCAUUGUAUUUAGAUA, the entries for the “pre-steady-state target cleavage rate” value in assay [1] (setting [3]) and in assay [2] (setting [4]) were 0.000139 ± 0.027 and 0.000823 ± 0.008, respectively.
Take UCCUGGAACUGCUUGCAUAGUAUUUUGUUA: the figures for the “pre-steady-state target cleavage rate” value in assay [1] (setting [3]) and in assay [2] (setting [4]) were 0.0028 ± 0.0028 and 0.00426 ± 0.0026, respectively.
With UCCUGGAUGUCGAUGCAUAGAAUUUAGUAA, the entries for the “pre-steady-state target cleavage rate” value in assay [1] (setting [5]) and in assay [2] (setting [6]) were 0.00051 ± 0.013 and less than 0.0001, respectively.
As for UCCUCCUACAGCUUGCAUAGUAUUUAGUCA, the “pre-steady-state target cleavage rate” value in assay [1] (setting [5]) was 0.303 ± 0.025; in assay [2] (setting [4]), 0.00693 ± 0.003.
UCCUCUACAGCUUGCAUAGUAUUUAGUUA: the “pre-steady-state target cleavage rate” value in assay [1] (setting [5]) worked out at 0.31 ± 0.013; in assay [2] (setting [4]) it was 0.183 ± 0.045.
Regarding UCCUGGAUGUCGAACGUAUGUAAUUAGUUA, the “pre-steady-state target cleavage rate” value in assay [1] (setting [3]) was 0.000211 ± 0.019; in assay [2] (setting [6]), 0.000116 ± 0.054.
On to UCCUGGAUCAGCUUGCAUAGUAUUAAGUAA, for which the “pre-steady-state target cleavage rate” value amounted to 0.00253 ± 0.0031 in assay [1] (setting [3]) and 0.00602 ± 0.0026 in assay [2] (setting [4]).
As for UCCUCCUACAGCUGGCAUAGUAUUUAGUUA, the figures for the “pre-steady-state target cleavage rate” value in assay [1] (setting [5]) and in assay [2] (setting [4]) were 0.294 ± 0.02 and 0.0728 ± 0.02, respectively.
Regarding UCCUGGAACAGCUUGCAUAGUAUUUAGUA, the results for the “pre-steady-state target cleavage rate” value in assay [1] (setting [3]) and in assay [2] (setting [4]) were 0.00278 ± 0.0029 and 0.00384 ± 0.0024, respectively.
As for UCCUGGAUGAGCUACCAUAGUAUUUACAAA, the “pre-steady-state target cleavage rate” value was found to be 0.000429 ± 0.012 in assay [1] (setting [3]) and 0.000168 ± 0.029 in assay [2] (setting [4]).
As for UCCUGCUACAGCUUGCAUAGUAUUUCGUUA, the “pre-steady-state target cleavage rate” value in assay [1] (setting [3]) turned out to be 0.00112 ± 0.0051; in assay [2] (setting [6]), 0.000163 ± 0.036.
Consider UCCUCCUUGUGCUUGCAUAGUAUUUAGAAA, for which the “pre-steady-state target cleavage rate” value amounted to 0.000974 ± 0.0041 in assay [1] (setting [3]) and 0.00387 ± 0.0022 in assay [2] (setting [4]).
UCCUGGAUGUGCUUGCAUAGUAUUUAGAUUA: the “pre-steady-state target cleavage rate” value in assay [1] (setting [3]) came out at 0.00141 ± 0.0061; in assay [2] (setting [6]), 0.000928 ± 0.011.
With UCCUGGAUGUCGAACCAAGUAUUUAGUUA, the “pre-steady-state target cleavage rate” value in assay [1] (setting [5]) was 0.000159 ± 0.02; in assay [2] (setting [4]), 0.000213 ± 0.022.
Consider UCCUGGAUGUCGAAGCAUAGUAUAAAGUUA, for which the figures for the “pre-steady-state target cleavage rate” value in assay [1] (setting [3]) and in assay [2] (setting [4]) were 0.00151 ± 0.004 and 0.000718 ± 0.013, respectively.
Turning to UCCUGGAUGUCGAUGCAUAGUAUUUCAGUUA, the “pre-steady-state target cleavage rate” value in assay [1] (setting [3]) was 0.00136 ± 0.0057; in assay [2] (setting [4]), 0.000323 ± 0.014.
With UCCUCCUACAGCUUGCUUAGUAUUAAGUUA, the “pre-steady-state target cleavage rate” value in assay [1] (setting [3]) worked out at 0.00226 ± 0.0029; in assay [2] (setting [4]) it was 0.00459 ± 0.0031.
Consider UCCUGGAUGAGCUUGCAUAGUAUUUAGUCA, for which the “pre-steady-state target cleavage rate” value in assay [1] (setting [3]) amounted to 0.00259 ± 0.0036; in assay [2] (setting [4]) it was 0.00793 ± 0.0032.
In the case of UCCUGGAUGUCGAUGCAUUGUAUUUAGUAA, the “pre-steady-state target cleavage rate” value was 0.000491 ± 0.012 in assay [1] (setting [3]) and 0.000249 ± 0.012 in assay [2] (setting [4]).
UCCUGGUACAGGUUGCAUAGUAUUUAGUAA: the “pre-steady-state target cleavage rate” value in assay [1] (setting [5]) is 0.287 ± 0.04; in assay [2] (setting [4]), 0.00428 ± 0.0022.
Consider UCCUCCUACAGCCUGCAUAGUAUUUAGUUA, for which the “pre-steady-state target cleavage rate” value in assay [1] (setting [5]) is 0.287 ± 0.018; in assay [2] (setting [4]), 0.0698 ± 0.018.
Consider UCCUGGUACACCUUGCAUAGUAUUUAGAUA, for which the entries for the “pre-steady-state target cleavage rate” value in assay [1] (setting [3]) and in assay [2] (setting [4]) were 0.00188 ± 0.0049 and 0.00278 ± 0.0024, respectively.
UCCUGCUACAGCUUGCAUAGUAUAUUCAAA: the “pre-steady-state target cleavage rate” value in assay [1] (setting [3]) was 0.00133 ± 0.0055; in assay [2] (setting [4]) it was 0.00134 ± 0.0024.
As to UCCUGGAUGUCGAACGUAUCUGUUUAGUUA, the “pre-steady-state target cleavage rate” value in assay [1] (setting [3]) came to 0.000212 ± 0.017; in assay [2] (setting [4]), 0.000195 ± 0.027.
For UCCUCCUACGGCUUGCAUAGUAUUUAGUUA, the “pre-steady-state target cleavage rate” value in assay [1] (setting [5]) stood at 0.298 ± 0.018; in assay [2] (setting [4]) it was 0.0667 ± 0.017.
Turning to UCCUGGAUGUCGAACCAUAGUAUUUAGUGA, the “pre-steady-state target cleavage rate” value in assay [1] (setting [3]) worked out at 0.000299 ± 0.01; in assay [2] (setting [6]) it was 0.000121 ± 0.051.
UCCUGCUACAGCUUGCAUAGUAAUUACUUA: the figures for the “pre-steady-state target cleavage rate” value in assay [1] (setting [3]) and in assay [2] (setting [4]) were 0.00127 ± 0.006 and 0.0026 ± 0.0026, respectively.
